The record followed here is the supplement of paper PMC8866396.

One test has as its system IL-6-GFP PC-9GR. Kind of test: IL-6-GFP fluorescence relative to DMSO control (fraction of control); higher = more IL-6-GFP expression. Particulars: compound concentration: 10 uM; treatment time: 48 h. The procedure: (§1)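 IL-6-GFP-overexpressing PC-9 and PC-9GR EGFR-mutant lung cancer cells (3000 cells/well, 96-well) were treated for 48 h with each compound of the Selleck L2000 library at 10 uM. IL-6-GFP fluorescence was read on a high-content screening system, and viability by CCK-8 absorbance on a parallel plate set. Each value was normalised as compound well / DMSO control well; two independent replicates.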

Another test concerns IL-6-GFP PC-9. The description is as above. As to conditions: compound concentration: 10 uM; treatment time: 48 h. On the procedure: as §1

SMILES strings stand for the structures. Structures can show the parent of a compound that is named as a salt. ± gives the standard deviation of the averaged measurements. This is one part of the list. This data set is noisy: repeats of one test often differ as much as different tests do.

For `COc1nc2ccc(Br)cc2cc1C(c1ccccc1)C(O)(CCN(C)C)c1cccc2ccccc12` (stereo not drawn) [Bedaquiline], the IL-6-GFP fluorescence with IL-6-GFP PC-9GR came to 0.867 ± 0.086; with IL-6-GFP PC-9 it was 0.783 ± 0.028.

Regarding `Oc1ccc(/C=C/c2cc(O)cc(O)c2)cc1` [Resveratrol], the values for the IL-6-GFP fluorescence in the test on IL-6-GFP PC-9GR and in the test with IL-6-GFP PC-9 were 0.927 ± 0.045 and 0.9 ± 0.071, respectively.

For `NC1CN(c2c(F)cc3c(=O)c(C(=O)O)cn(C4CC4F)c3c2Cl)CC12CC2.NC1CN(c2c(F)cc3c(=O)c(C(=O)O)cn(C4CC4F)c3c2Cl)CC12CC2.O.O.O` (stereo not drawn) [Sitafloxacin Hydrate], the IL-6-GFP fluorescence in the test with IL-6-GFP PC-9GR was found to be 0.685 ± 0.27; in the test with IL-6-GFP PC-9 it was 0.626 ± 0.021.

Consider `CS(=O)(=O)O.N#CC1(c2ccc(NC(=O)c3cccnc3NCc3ccncc3)cc2)CCCC1`, for which the figures for the IL-6-GFP fluorescence in the test on IL-6-GFP PC-9GR and in the test with IL-6-GFP PC-9 were 0.777 ± 0.27 and 0.97 ± 0.27, respectively.

As to `Cc1ccc(-c2cc(C(F)(F)F)nn2-c2ccc(S(N)(=O)=O)cc2)cc1` [Celecoxib], the values for the IL-6-GFP fluorescence with IL-6-GFP PC-9GR and in the test on IL-6-GFP PC-9 were 1.011 ± 0.01 and 0.899 ± 0.023, respectively.

For the compound `Nc1n[n+]([O-])c2ccccc2[n+]1[O-]` [Tirapazamine], the IL-6-GFP fluorescence was found to be 1.16 ± 0.32 with IL-6-GFP PC-9GR and 1.02 ± 0.26 in the test on IL-6-GFP PC-9.

On to `Nc1ccc(S(=O)(=O)Nc2ccnn2-c2ccccc2)cc1` [Sulfaphenazole], for which the IL-6-GFP fluorescence in the test on IL-6-GFP PC-9GR was determined as 0.845 ± 0.041; with IL-6-GFP PC-9, 0.81 ± 0.16.

With `CC(=O)Nc1cccc(-n2c(=O)n(C3CC3)c(=O)c3c(Nc4ccc(I)cc4F)n(C)c(=O)c(C)c32)c1`, the IL-6-GFP fluorescence in the test with IL-6-GFP PC-9GR was determined as 0.977 ± 0.065; in the test on IL-6-GFP PC-9, 0.847 ± 0.2.

Take `Cc1c(-c2ccc(-c3ccccc3F)cc2)nc2ccc(F)cc2c1C(=O)O` [Brequinar]: the IL-6-GFP fluorescence in the test with IL-6-GFP PC-9GR was found to be 1.22 ± 0.45; in the test with IL-6-GFP PC-9 it was 0.745 ± 0.53.

As to `Cl.N=C1CCCN1Cc1[nH]c(=O)[nH]c(=O)c1Cl` [Tipiracil hydrochloride], the IL-6-GFP fluorescence with IL-6-GFP PC-9GR was 0.8336 ± 0.0057; with IL-6-GFP PC-9 it was 0.82 ± 0.17.

With `CN(C)C/C=C/C(=O)Nc1cc2c(Nc3ccc(F)c(Cl)c3)ncnc2cc1OC1CCOC1.O=C(O)/C=C\C(=O)O.O=C(O)/C=C\C(=O)O` (stereo not drawn) [Afatinib (BIBW2992) Dimaleate], the IL-6-GFP fluorescence was determined as 1.49 ± 0.51 in the test with IL-6-GFP PC-9GR and 1.26 ± 0.085 with IL-6-GFP PC-9.

As to `OCC1OC(c2ccc(Cl)c(Cc3ccc(OC4CCOC4)cc3)c2)C(O)C(O)C1O` (stereo not drawn), the IL-6-GFP fluorescence in the test on IL-6-GFP PC-9GR was determined as 0.92 ± 0.03; with IL-6-GFP PC-9, 0.972 ± 0.16.

Turning to `Cc1nccn1CC1CCc2c(c3ccccc3n2C)C1=O.Cl` (stereo not drawn) [Ondansetron HCl], the IL-6-GFP fluorescence in the test with IL-6-GFP PC-9GR was 0.998 ± 0.21; with IL-6-GFP PC-9 it was 0.822 ± 0.092.

Take `CCC1/C=C(\C)CC(C)CC(OC)C2OC(O)(C(=O)C(=O)N3CCCCC3C(=O)OC(/C(C)=C/C3CCC(Cl)C(OC)C3)C(C)C(O)CC1=O)C(C)CC2OC` (stereo not drawn) [Pimecrolimus]: the IL-6-GFP fluorescence amounted to 0.998 ± 0.14 in the test with IL-6-GFP PC-9GR and 0.781 ± 0.093 in the test on IL-6-GFP PC-9.

For the compound `CC1=C(CC(=O)O)c2cc(F)ccc2/C1=C\c1ccc(S(C)=O)cc1` (stereo not drawn) [Sulindac], the figures for the IL-6-GFP fluorescence in the test with IL-6-GFP PC-9GR and in the test on IL-6-GFP PC-9 were 0.771 ± 0.24 and 1.05 ± 0.46, respectively.

On to `C=C1CCC2C(C)(COC(=O)CCC(=O)O)C(OC(=O)CCC(=O)O)CCC2(C)C1/C=C/C1=CCOC1=O` (stereo not drawn) [Dehydroandrographolide Succinate], for which the IL-6-GFP fluorescence in the test on IL-6-GFP PC-9GR was found to be 0.847 ± 0.056; in the test with IL-6-GFP PC-9, 0.687 ± 0.34.

In the case of `CCC(C)C(=O)OC1CC(C)C=C2C=CC(C)C(CCC3CC(O)CC(=O)O3)C21` (stereo not drawn) [Lovastatin], the figures for the IL-6-GFP fluorescence in the test on IL-6-GFP PC-9GR and in the test with IL-6-GFP PC-9 were 0.803 ± 0.22 and 0.989 ± 0.21, respectively.

For `CC(C)CC(NC(=O)C(Cc1ccccc1)NC(=O)c1cnccn1)B(O)O` (stereo not drawn) [Bortezomib (PS-341)], the IL-6-GFP fluorescence came to 1.1 ± 0.12 in the test on IL-6-GFP PC-9GR and 1.1 ± 0.27 in the test with IL-6-GFP PC-9.

`COC(=O)/C=C/C(=O)OC` [Dimethyl Fumarate]: the figures for the IL-6-GFP fluorescence in the test on IL-6-GFP PC-9GR and with IL-6-GFP PC-9 were 0.763 ± 0.17 and 0.76 ± 0.14, respectively.

Turning to `CC(C(=O)O)c1ccc(CC2CCCC2=O)cc1` (stereo not drawn) [Loxoprofen], the IL-6-GFP fluorescence turned out to be 0.752 ± 0.026 with IL-6-GFP PC-9GR and 0.914 ± 0.12 in the test with IL-6-GFP PC-9.

Consider `COc1ccc(-c2cc(=S)ss2)cc1` [Anethole trithione], for which the results for the IL-6-GFP fluorescence in the test on IL-6-GFP PC-9GR and in the test with IL-6-GFP PC-9 were 0.385 ± 0.32 and 0.734 ± 0.048, respectively.

Consider `CN1CCC(NC(=O)Nc2ccc(C#N)cc2)CC1c1nc2ccccc2[nH]1` (stereo not drawn), for which the IL-6-GFP fluorescence in the test on IL-6-GFP PC-9GR stood at 1.05 ± 0.062; in the test on IL-6-GFP PC-9 it was 0.95 ± 0.066.

On to `CC(=O)c1c(C)c2cnc(Nc3ccc(N4CCNCC4)cn3)nc2n(C2CCCC2)c1=O.O=S(=O)(O)CCO`, for which the figures for the IL-6-GFP fluorescence with IL-6-GFP PC-9GR and in the test with IL-6-GFP PC-9 were 0.785 ± 0.039 and 1.05 ± 0.08, respectively.

Take `Cc1ccc(Nc2nccc(N(C)c3ccc4c(C)n(C)nc4c3)n2)cc1S(N)(=O)=O.Cl`: the IL-6-GFP fluorescence in the test on IL-6-GFP PC-9GR was found to be 0.918 ± 0.034; in the test on IL-6-GFP PC-9, 0.977 ± 0.072.
